The source of these data is publication PMC12491784.

Amino acid sequences for entries named in this document (tags omitted). A change or cut given only in a name is not applied to a line headed by its entry.
UniProt Q96DH6: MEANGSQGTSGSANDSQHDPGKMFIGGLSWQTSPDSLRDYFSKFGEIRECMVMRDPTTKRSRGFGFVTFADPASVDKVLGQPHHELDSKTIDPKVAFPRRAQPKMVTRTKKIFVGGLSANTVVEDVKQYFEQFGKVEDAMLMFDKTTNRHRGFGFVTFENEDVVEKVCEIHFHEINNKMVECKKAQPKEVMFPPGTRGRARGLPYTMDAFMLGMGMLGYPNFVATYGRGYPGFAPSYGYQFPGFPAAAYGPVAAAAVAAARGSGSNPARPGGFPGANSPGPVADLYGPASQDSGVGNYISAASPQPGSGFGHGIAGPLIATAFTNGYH
UniProt P11940, whole entry: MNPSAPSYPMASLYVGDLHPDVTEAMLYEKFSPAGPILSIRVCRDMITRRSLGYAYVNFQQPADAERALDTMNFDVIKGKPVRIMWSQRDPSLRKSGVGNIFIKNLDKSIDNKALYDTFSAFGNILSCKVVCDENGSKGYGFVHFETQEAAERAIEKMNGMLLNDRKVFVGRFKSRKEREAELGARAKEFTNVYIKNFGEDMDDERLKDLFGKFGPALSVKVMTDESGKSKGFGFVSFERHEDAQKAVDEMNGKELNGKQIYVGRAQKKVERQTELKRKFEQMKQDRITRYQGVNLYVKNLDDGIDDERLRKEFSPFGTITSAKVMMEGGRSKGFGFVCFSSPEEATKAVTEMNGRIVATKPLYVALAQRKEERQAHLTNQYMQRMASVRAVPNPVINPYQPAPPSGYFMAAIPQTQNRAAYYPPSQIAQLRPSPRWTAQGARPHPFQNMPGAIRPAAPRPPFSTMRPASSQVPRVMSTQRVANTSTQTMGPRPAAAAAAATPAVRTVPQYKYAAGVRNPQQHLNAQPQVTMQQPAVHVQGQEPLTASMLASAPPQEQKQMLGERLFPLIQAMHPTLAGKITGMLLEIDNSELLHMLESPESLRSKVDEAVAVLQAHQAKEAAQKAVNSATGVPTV

In data set [1] the target is MSI2 (Musashi-2), endogenous, PANC-1 lysate (UniProt Q96DH6). The experiment in a line: pull-down. The conditions noted are these: RNA pull-down: 100 pmol biotinylated probe on streptavidin beads, 4 C 4 h, high-stringency wash 20 mM Tris-HCl pH 7.5, 1 mM EDTA, 450 mM NaCl, protein in an extract, label: 5' biotin.
Data set [2] deals with PABPC1, endogenous, PANC-1 lysate (UniProt P11940). The experiment in a line: pull-down. The note with it: RNA pull-down: 100 pmol biotinylated probe on streptavidin beads, 4 C 4 h, high-stringency wash 20 mM Tris-HCl pH 7.5, 1 mM EDTA, 450 mM NaCl, protein in an extract, label: 5' biotin.

The exact form of at least one protein or probe is not confirmed. Where cells or extracts were used, other partners may take part. A negative result means that nothing was seen under these conditions. For part of these data: At least one verdict was read from the data and is not stated in words by the source.

With “GUGUGCUCCAAACUUUAUCAAAAG [P1-mut RNA probe]”, the binding result in data set [1] is on record as “no binding”.
Regarding GUGUGCUCCAUAGUUUAUCAAAAG [P1 RNA probe], the binding result in data set [1] was “binds”; in data set [2], “no binding”.
As for “UCCUAUCAAAUAACUAAACCAAAG [P2-mut RNA probe]”, in data set [1], the binding result is given as “no binding”.
For UCCUAUCAAAUUAGUAAACCAAAG [P2 RNA probe], the values for the binding result in data set [1] and in data set [2] were “binds” and “no binding”, respectively.
